The text below walks through data of US11970498B2, “CDK2 inhibitors” (BLUEPRINT MEDICINES CORPORATION, priority 2021, dated 2024).

Protein sequences, listed by entry. Tags and fused reporters are not part of them.
UniProt P06493, whole entry: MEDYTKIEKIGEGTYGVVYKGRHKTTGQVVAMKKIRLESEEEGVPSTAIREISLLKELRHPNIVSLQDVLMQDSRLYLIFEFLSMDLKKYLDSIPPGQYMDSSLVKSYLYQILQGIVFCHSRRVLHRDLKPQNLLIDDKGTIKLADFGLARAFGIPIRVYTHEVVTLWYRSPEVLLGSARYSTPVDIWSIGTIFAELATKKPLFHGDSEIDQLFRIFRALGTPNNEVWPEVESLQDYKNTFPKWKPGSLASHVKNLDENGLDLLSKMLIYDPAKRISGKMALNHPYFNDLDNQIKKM
UniProt P14635, whole entry partner: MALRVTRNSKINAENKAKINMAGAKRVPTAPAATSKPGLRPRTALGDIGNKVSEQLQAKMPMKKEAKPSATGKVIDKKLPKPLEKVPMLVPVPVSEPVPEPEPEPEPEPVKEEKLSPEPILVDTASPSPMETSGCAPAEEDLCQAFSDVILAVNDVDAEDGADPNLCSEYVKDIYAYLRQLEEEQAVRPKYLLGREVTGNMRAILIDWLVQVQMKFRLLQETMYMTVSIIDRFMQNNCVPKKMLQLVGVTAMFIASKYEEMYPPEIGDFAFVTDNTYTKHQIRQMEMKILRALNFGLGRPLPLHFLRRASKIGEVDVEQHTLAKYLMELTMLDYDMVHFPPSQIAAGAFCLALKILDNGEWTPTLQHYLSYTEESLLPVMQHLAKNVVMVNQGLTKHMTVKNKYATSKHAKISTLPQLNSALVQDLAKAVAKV

SMILES strings stand for the structures. Structures were worked out from names or drawings and are uncertain. Bounds are passed on as bounds.

One experiment addresses CDK2/Cyclin E (Homo sapiens, UniProt P24941). Nature of the experiment: CDK2/Cyclin E biochemical phosphorylation assay (Caliper mobility shift). To be noted: read-out: CDK2/cyclin E1 IC50; apparent IC50; 1.0 mM ATP or ATP Km; 1.25 nM enzyme; 25° C. The method, then:
(§1) Inhibitory effects of the compounds of the disclosure were measured in biochemical assays that measure the enzymatic phosphorylation activity of CDK enzyme in complex of Cyclin proteins phosphorylates 7.5 micromolar fluorescently labelled peptide substrate, 5-FAM-QSPKKG-CONH2, (FL-Peptide 18, Perkin Elmer, 760362) in the presence of adenosine-5′-triphosphate (ATP) and varying concentrations of the test compound in 100 mM 2-[4-(2-hydroxyethyl)piperazin-1-yl] ethanesulfonic acid (HEPES), pH 7.5, 10 mM MgCl2, 0.015% Brij-35, 1 mM dithiothreitol (DTT), 1.0% dimethylsulfoxide (DMSO). Assays were performed at 1.0 mM ATP or at ATP Km of the CDK enzymes in complex with Cyclin proteins. Reactions proceeded until between 10% to 20% total peptides were phosphorylated at room temperature (25° C.) and were terminated with 35 mM 2,2′,2″,2′″-(ethane-1,2-diyldinitrilo)tetraacetic acid (EDTA). Product was detected using the Caliper mobility shift detection method where the phosphorylated peptide (product) and substrate were electrophoretically separated and measured. Percent activity was plotted against log concentration of compound and points to generate an apparent IC50. The following CDK enzymes in complex with different cyclin proteins were used in these assays: • CDK1/Cyclin B1, GST-tag (BPS, 40454), 1.5 nM used in the assay • CDK2/Cyclin E (Eurofins, 14-475), 1.25 nM used in the assays […]

In the next experiment the target is CDK1/Cyclin B1, GST-tag (Homo sapiens, UniProt P06493). Briefly: CDK1/Cyclin B1 biochemical phosphorylation assay (Caliper mobility shift). Particulars: read-out: CDK1/cyclin B1 IC50; apparent IC50; 1.0 mM ATP or ATP Km; 1.5 nM enzyme; 25° C. As to the method:
as §1

As to `FC(F)Oc1cc(Nc2cnc3cnn(C[C@@H]4C[C@@H]4F)c3n2)n[nH]1` (relative stereo), the IC50 is under 10 nM at CDK2/Cyclin E and 100 to 500 nM at CDK1/Cyclin B1, GST-tag.
